The source of these data is paper PMC4933475.

Sequences of proteins named here, by UniProt entry; tags and fusion partners are left off. A change or cut given only in a name is not applied to a line headed by its entry. A line that says so, or that is headed by a name, gives the form on record, which may keep a tag or linker. Residues count along the entry.
UniProt Q99717: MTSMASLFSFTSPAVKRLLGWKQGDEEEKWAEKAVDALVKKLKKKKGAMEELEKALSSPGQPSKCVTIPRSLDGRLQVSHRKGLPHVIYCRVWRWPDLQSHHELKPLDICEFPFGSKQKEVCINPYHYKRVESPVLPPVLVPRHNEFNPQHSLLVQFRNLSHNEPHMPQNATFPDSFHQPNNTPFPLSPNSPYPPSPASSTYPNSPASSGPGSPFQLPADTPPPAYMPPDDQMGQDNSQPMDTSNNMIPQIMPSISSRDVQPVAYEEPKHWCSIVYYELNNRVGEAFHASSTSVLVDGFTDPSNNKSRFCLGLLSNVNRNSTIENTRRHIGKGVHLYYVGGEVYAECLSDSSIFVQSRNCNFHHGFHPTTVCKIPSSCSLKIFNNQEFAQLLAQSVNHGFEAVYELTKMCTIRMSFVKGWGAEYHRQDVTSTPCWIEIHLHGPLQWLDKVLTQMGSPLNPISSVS
UniProt Q15797: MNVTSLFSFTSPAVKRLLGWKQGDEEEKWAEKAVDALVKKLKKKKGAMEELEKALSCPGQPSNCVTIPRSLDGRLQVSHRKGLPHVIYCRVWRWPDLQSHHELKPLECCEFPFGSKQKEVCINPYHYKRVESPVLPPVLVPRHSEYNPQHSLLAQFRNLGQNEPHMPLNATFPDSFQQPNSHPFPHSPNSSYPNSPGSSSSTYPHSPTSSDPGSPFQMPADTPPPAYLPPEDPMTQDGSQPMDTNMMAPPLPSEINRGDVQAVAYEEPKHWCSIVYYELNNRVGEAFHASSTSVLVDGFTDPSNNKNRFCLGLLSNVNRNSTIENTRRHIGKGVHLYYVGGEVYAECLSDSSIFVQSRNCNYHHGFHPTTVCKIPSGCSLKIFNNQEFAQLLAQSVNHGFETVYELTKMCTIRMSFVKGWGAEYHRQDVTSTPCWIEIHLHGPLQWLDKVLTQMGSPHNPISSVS
GST-Smad1 MH1: residues 1-132 of Q15797
GST-Smad1 MH1 EELE to QQLQ (Q15797, form named): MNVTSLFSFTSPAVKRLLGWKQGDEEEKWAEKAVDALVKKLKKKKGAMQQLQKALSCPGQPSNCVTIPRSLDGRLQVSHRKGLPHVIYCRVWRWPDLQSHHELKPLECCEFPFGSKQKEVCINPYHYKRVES
GST-Smad1 MH1 K53A (Q15797, form named): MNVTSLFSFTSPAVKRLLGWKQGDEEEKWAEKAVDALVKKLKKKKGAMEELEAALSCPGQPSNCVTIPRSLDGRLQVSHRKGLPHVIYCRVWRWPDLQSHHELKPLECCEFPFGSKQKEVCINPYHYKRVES
GST-Smad1 MH1 K53R (Q15797, form named): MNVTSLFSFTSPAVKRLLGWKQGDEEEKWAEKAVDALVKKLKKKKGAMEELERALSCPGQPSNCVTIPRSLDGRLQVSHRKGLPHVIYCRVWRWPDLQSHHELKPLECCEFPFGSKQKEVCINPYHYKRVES
UniProt P84022: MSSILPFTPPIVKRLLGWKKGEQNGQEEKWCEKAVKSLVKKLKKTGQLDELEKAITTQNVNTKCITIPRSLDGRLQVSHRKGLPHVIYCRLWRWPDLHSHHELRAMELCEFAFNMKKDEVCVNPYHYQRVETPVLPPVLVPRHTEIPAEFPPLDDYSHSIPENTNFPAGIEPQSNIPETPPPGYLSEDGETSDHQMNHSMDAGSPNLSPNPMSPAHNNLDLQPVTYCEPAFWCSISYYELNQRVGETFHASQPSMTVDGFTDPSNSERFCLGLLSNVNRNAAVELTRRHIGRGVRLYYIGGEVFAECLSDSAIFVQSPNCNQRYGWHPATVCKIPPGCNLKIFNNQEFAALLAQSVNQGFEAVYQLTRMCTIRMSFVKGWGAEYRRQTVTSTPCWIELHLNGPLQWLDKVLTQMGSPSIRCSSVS
UniProt Q13485: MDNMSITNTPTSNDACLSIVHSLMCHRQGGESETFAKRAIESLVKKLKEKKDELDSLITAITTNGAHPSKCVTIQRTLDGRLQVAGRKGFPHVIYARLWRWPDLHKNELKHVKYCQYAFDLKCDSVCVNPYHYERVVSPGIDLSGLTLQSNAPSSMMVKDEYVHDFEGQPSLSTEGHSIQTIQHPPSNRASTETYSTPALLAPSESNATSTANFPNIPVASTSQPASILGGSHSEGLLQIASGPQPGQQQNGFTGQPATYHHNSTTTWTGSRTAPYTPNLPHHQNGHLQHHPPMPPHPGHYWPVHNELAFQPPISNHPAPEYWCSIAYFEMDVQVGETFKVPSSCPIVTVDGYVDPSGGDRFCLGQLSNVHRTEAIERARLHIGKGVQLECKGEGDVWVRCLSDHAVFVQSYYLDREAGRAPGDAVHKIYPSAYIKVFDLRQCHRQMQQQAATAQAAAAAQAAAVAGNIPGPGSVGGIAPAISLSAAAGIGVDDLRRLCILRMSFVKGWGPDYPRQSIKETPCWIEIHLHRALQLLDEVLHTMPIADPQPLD
UniProt Q86W56: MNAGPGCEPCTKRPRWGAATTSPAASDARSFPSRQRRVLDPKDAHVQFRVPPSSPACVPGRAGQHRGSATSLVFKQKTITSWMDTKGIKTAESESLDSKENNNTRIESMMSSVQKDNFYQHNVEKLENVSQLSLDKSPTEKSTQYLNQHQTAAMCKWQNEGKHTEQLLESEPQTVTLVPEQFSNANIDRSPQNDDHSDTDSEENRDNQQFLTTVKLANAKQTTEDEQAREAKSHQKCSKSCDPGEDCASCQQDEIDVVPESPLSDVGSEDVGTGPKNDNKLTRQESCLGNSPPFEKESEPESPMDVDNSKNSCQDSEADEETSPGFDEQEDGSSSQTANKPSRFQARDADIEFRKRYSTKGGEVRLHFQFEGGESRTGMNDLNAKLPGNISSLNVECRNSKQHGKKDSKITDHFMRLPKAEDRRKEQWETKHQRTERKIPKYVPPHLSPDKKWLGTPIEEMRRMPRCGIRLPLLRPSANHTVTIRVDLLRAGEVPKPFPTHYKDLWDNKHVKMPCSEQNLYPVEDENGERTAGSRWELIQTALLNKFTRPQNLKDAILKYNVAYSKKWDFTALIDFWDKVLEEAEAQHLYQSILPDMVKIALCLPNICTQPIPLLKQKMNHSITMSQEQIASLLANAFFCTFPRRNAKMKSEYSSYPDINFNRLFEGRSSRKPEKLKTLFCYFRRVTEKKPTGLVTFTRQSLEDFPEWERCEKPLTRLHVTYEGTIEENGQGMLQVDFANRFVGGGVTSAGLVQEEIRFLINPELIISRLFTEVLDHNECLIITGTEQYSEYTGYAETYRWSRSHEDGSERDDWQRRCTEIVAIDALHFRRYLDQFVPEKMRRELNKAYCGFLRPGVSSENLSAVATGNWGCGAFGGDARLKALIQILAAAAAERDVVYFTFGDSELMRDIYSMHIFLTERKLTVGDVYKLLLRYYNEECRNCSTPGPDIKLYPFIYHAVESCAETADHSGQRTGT
UniProt P09874: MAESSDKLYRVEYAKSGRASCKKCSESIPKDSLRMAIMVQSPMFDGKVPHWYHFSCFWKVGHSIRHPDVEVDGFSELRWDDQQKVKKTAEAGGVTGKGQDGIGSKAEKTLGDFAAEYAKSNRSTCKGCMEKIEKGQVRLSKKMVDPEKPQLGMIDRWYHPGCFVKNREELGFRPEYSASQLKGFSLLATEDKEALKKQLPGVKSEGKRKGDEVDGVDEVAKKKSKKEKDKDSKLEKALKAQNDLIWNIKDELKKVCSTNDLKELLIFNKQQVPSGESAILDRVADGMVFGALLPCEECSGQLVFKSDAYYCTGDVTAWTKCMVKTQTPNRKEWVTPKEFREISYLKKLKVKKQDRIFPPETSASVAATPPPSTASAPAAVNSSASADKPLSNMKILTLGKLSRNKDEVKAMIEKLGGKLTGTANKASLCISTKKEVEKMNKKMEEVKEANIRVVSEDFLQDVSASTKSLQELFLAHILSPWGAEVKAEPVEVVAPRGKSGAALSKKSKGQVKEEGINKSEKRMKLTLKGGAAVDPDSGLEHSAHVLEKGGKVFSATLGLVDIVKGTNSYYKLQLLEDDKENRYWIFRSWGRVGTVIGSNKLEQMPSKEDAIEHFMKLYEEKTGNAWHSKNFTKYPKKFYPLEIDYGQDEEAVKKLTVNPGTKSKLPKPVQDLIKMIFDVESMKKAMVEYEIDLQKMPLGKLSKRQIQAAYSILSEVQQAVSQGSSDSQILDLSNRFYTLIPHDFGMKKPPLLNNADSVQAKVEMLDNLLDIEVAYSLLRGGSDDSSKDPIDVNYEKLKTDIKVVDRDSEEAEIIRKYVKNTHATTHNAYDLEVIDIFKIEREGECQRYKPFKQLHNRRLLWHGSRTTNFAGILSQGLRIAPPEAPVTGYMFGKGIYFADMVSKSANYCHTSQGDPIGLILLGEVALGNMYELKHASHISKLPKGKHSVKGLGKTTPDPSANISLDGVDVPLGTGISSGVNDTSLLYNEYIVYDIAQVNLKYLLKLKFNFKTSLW

For experiment [1], the target named is FLAG-Smad5 (UniProt Q99717). Briefly: co-IP; HEK293T transfected with FLAG-Smads; FLAG immunoprecipitation, immunoblot for endogenous PARP1; without or with 10 mM H2O2 for 10 min; no BMP ligand.
For experiment [2], the target named is FLAG-Smad1 (UniProt Q15797). The description is as above.
In another experiment the target is FLAG-Smad3 (UniProt P84022). Described as above.
The next experiment deals with FLAG-Smad4 (UniProt Q13485). The description is as above.
In experiment [3] the target is GST-Smad1 (UniProt Q15797). Briefly: pull-down; GST fusion proteins on glutathione-Sepharose beads added to total HEK293T cell lysates, 2 h at 4 °C; washed in Nonidet P-40 lysis buffer; immunoblot for endogenous PARP1; only the target purified. In general terms: Immunoblotting shows a protein as a band on a membrane.
Another experiment has as its target GST-Smad4 (UniProt Q13485). The description is as above.
For experiment [4], the target named is GST-Smad5 (UniProt Q99717). The experiment is described as above.
Experiment [5] addresses GST-Smad1 MH1 EELE to QQLQ (UniProt Q15797). Described as above.
In experiment [6] the target is GST-Smad1 MH1 K53A (UniProt Q15797). The experiment is described as above.
For experiment [7], the target named is GST-Smad1 MH1 (UniProt Q15797). The experiment is described as above.
Experiment [8] deals with GST-Smad1 MH1 K53R (UniProt Q15797). Described as above.
Experiment [9] concerns the target FLAG-Smad5 (UniProt Q99717). Kind of experiment: co-IP; unpublished results; HEK293T co-transfected with Smad1 and Smad4 or Smad5 and Smad4, complex with endogenous PARP1.
The target of experiment [10] is FLAG-Smad1 (UniProt Q15797). Described as above.
Experiment [11] addresses endogenous Smad1 (HaCaT) (human (endogenous in HaCaT)) (UniProt Q15797). Briefly: co-IP; endogenous proteins from total HaCaT lysates; antibodies precoupled to protein A/G Dynabeads, overnight at 4 °C; without or with 30 ng/ml BMP7 for 30 min; nonspecific IgG as negative control.
The target in experiment [12] is endogenous PARG (HaCaT) (human (endogenous in HaCaT)) (UniProt Q86W56). Kind of experiment: co-IP; immunoprecipitation of endogenous PARG from cytoplasmic HaCaT extracts (CelLytic NuCLEAR extraction kit); without or with 30 ng/ml BMP7 for 30 min.
For experiment [13], the target named is endogenous Smad1 (HaCaT) (human (endogenous in HaCaT)) (UniProt Q15797). Briefly: proximity ligation; HaCaT cells, mouse anti-Smad1 and rabbit anti-PARP1 antibodies, Duolink II; without or with 30 ng/ml BMP7 for the indicated times.
Experiment [14] addresses endogenous PARG (HaCaT) (human (endogenous in HaCaT)) (UniProt Q86W56). Kind of experiment: co-IP; immunoprecipitation of endogenous PARG from nuclear HaCaT extracts (CelLytic NuCLEAR extraction kit); without or with 30 ng/ml BMP7 for 30 min.
Experiment [15] shares this target. Briefly: co-IP; endogenous proteins from total HaCaT lysates; antibodies precoupled to protein A/G Dynabeads, overnight at 4 °C; without or with 30 ng/ml BMP7 for 30 min; nonspecific IgG as negative control.
Experiment [16] deals with GST-Smad1 (UniProt Q15797). Kind of experiment: pull-down; in vitro ADP-ribosylation assay done as a pulldown: GST-Smads on glutathione beads with 100 ng recombinant PARP1, 80 nM β-NAD+ and 20 nM 32P-β-NAD+, 30 min at 37 °C; autoradiography; both purified.
For experiment [17], the target named is GST-Smad5 (UniProt Q99717). The experiment is described as above.
Experiment [18] concerns the target GST-Smad1 MH1 EELE to QQLQ (UniProt Q15797). Kind of experiment: pull-down; non-radioactive ADP-ribosylation assay: GST-Smad1 MH1 proteins on glutathione beads with recombinant PARP1 (20 ng) and cold β-NAD+, then pulldown and immunoblot for PARP1; both purified.
In experiment [19] the target is GST-Smad1 MH1 K53A (UniProt Q15797). The experiment is described as above.
Experiment [20] has as its target GST-Smad1 MH1 (UniProt Q15797). Described as above.
The target in experiment [21] is GST-Smad1 MH1 K53R (UniProt Q15797). The description is as above.

Results are given in words; binding and its absence hold for the method and conditions named. For part of these data: In cells and extracts the contact can be indirect. Some binding calls cover weakened binding; strength is not graded here.

Turning to “endogenous PARP1 (HEK293T) (from UniProt P09874 1-1014) (enzyme)”, the binding entry in the experiment with FLAG-Smad5 [1], with FLAG-Smad1 [2], in the experiment with FLAG-Smad3, with FLAG-Smad4, in the experiment with GST-Smad1 [3] and in the experiment with GST-Smad4 was “binds” each time. Moreover, the binding result (in the experiment with GST-Smad5 [4]; in experiment [5]; in the experiment with GST-Smad1 MH1 K53A [6]; in the experiment with GST-Smad1 MH1 [7]; with GST-Smad1 MH1 K53R [8]; with FLAG-Smad5 [9]) was “binds” each time. The binding entry with FLAG-Smad1 [10] is “binds”.

Regarding “endogenous PARP1 (HaCaT) (from UniProt P09874 1-1014) (enzyme)”, the binding entry is recorded as “binds” in experiment [11], “no binding (condition: cytoplasmic HaCaT extract)” in experiment [12], “binds” in [13] and “binds” in [14].

Consider “endogenous Smad4 (HaCaT) (from UniProt Q13485 1-552)”, for which the binding result in experiment [15] is on record as “binds”; in experiment [12], “no binding (condition: cytoplasmic HaCaT extract)”; in experiment [14] it was “binds”.

On to “endogenous Smad5 (HaCaT) (from UniProt Q99717 1-465)”, for which the binding entry in experiment [15] is “binds”.

As for “recombinant PARP1 (from UniProt P09874 1-1014) (enzyme)”, the binding entry (with GST-Smad1 [16]; in the experiment with GST-Smad5 [17]; in [18]; in the experiment with GST-Smad1 MH1 K53A [19]; in the experiment with GST-Smad1 MH1 [20]; in the experiment with GST-Smad1 MH1 K53R [21]) was “binds” each time.
